Test results taken from the supplement of paper PMC12823440, “Inhibitors supercharge kinase turnover through native proteolytic circuits” (Nature, 2025).
This is one part of the list. Hit calls seldom repeat between salt and free forms of one compound.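 Kinases, fused to nanoluciferase, were expressed in K562 cells; luminescence was measured every 4 h from 2 to 18 h as percent of control (DMSO = 100%, positive control = 0%). A time point is decreased if signal falls significantly (2 sigma). Hits were called by the authors by a rule that is not shown; the count of time points alone does not decide it.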

The chains behind the UniProt entries cited, without tags or fusion partners. Where a name states a change or a piece, a line headed by the entry shows the natural chain unless it says otherwise.
UniProt Q9Y616: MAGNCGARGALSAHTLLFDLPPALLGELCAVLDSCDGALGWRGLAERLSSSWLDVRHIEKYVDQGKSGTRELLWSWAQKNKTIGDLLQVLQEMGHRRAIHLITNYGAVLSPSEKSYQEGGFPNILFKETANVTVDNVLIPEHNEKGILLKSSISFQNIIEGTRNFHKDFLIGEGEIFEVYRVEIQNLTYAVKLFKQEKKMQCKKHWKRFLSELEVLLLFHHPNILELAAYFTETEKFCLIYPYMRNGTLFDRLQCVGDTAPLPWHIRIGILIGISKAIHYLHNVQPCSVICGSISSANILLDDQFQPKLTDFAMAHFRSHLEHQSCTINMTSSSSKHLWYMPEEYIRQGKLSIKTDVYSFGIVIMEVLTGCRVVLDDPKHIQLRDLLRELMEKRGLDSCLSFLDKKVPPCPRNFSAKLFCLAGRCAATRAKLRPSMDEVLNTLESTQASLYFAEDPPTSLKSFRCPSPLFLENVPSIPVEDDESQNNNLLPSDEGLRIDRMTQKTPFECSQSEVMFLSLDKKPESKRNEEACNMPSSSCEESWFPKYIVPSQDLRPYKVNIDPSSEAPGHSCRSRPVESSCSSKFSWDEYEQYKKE

biological target: IRAK3 (UniProt Q9Y616); test: kinase-Nluc reporter destabilization hit call (1 = scored as downregulated) (binary); higher = compound decreases kinase abundance; conditions: K562; 2-18 h

kinase-Nluc reporter destabilization hit call, inactive:
O=C(O)c1cc(N(Cc2ccccc2O)Cc2ccccc2O)ccc1O [Lavendustin B] (10 µM) 0
Cc1cnc(NC2CCOCC2)nc1-n1cnc(C(=O)N[C@H](CN)c2cc(F)cc(Cl)c2)c1 (10 µM) 0
Cn1ncc2cc(-c3cnc(N)c(Cl)c3N3CCC4(CCNC4=O)CC3)ccc21 (10 µM) 0
CC(C)c1cccc(C(C)C)c1N1C(=O)c2ccc(N)cc2C1=O (2.5 µM) 0
CC[C@@](C)(Nc1ccnc(-c2c[nH]c3ncccc23)n1)C(=O)NCC(F)(F)F [Decernotinib] (10 µM) 0
NC1=NCCN1CC(=O)O [Cyclocreatine] (10 µM) 0
Nc1c(C(=O)NCc2ccc(C(=O)NCCCC3CCCCC3)cc2)cnn1-c1ccccc1 (2.5 µM) 0
C[C@H](Nc1ncnc2nc[nH]c12)c1cc2cccc(Cl)c2c(=O)n1-c1ccccc1 [Duvelisib] (10 µM) 0
Cc1cc(Nc2nc(CC3(C(=O)O)CCN(C(=O)c4cccc(Cl)c4Cl)CC3)ccc2F)n[nH]1 (10 µM) 0
C[C@@H]1O[C@@H](O[C@@H]2[C@@H](O)[C@H](OCCc3ccc(O)c(O)c3)O[C@H](CO)[C@H]2OC(=O)/C=C/c2ccc(O)c(O)c2)[C@H](O)[C@H](O)[C@H]1O [Verbascoside] (10 µM) 0
O=C1/C(=C\c2ccc(Cl)cc2)C=C(c2ccccc2)N1c1ccc(O)cc1 (2.5 µM) 0
Nc1nccc(Oc2ccc(NC(=O)c3c[nH]cc(-c4ccc(F)cc4)c3=O)cc2F)c1Cl (10 µM) 0
COc1ccc(-c2c(C)nn3c(NCCN4CCOCC4)cc(C)nc23)cc1OC (10 µM) 0
O=C1NC(=O)C(c2cnc3ccccn23)=C1c1cn2c3c(cc(F)cc13)CNCC2 [GSK-3 inhibitor 1] (2.5 µM) 0
CCCCCCCC/C=C\CCCCCCCCCCCC(=O)O [Erucic acid] (10 µM) 0
O=C(Nc1nc2ccccc2[nH]1)c1cccc([N+](=O)[O-])c1 [IRAK-4 protein kinase inhibitor 2] (10 µM) 0
Cc1cccc(-c2[nH]c(C(C)(C)C)nc2-c2ccc3nccnc3c2)n1 (10 µM) 0
C[C@@H]1CC(=O)c2c(ccc3c2C(=O)c2cccc(O)c2C3=O)C1 [Ochromycinone] (10 µM) 0
CN1C(=O)[C@@H](NC(=O)c2n[nH]c(Cc3ccccc3)n2)COc2ccccc21 (10 µM) 0
CCc1cccc(CC)c1NC(=O)N1Cc2[nH]nc(NC(=O)c3ccc(N4CCN(C)CC4)cc3)c2C1 (2.5 µM) 0
COc1ccc(N=Nc2c(N)n[nH]c2N)cc1 (10 µM) 0
Cc1ccc(NC(=O)c2ccnc(C(F)(F)F)c2)cc1-c1cc(OCCO)nc(N2CCOCC2)c1 (10 µM) 0
CC(C)(O)[C@H]1CC[C@H](Nc2ccc3ncc(-c4cccc(C(F)(F)F)c4)n3n2)CC1 (10 µM) 0
CCn1c(=O)c(-c2cc[nH]n2)cc2c(C)nc(N)nc21 [Voxtalisib] (10 µM) 0
C[C@H](NC(=O)[C@H]1NCC[C@@H]1O)c1ccc(-c2noc(CCC3CCCC3)n2)cc1 (10 µM) 0
O=C1O[C@H]([C@@H](O)CO)C(O)=C1OP(=O)(O)O [2-Phospho-L-ascorbic acid (trisodium)] (10 µM) 0
Cn1cnc([N+](=O)[O-])c1C[N+](C)(C)C/C=C/C(=O)Nc1cc2c(Nc3ccc(Cl)c(Br)c3)ncnc2cn1 [Tarloxotinib (bromide)] (10 µM) 0
CC1(C)Cc2c(sc(NC(=S)NC(=O)c3ccccc3)c2C(=O)O)CO1 (10 µM) 0
CCCCCCCCCCCCCCCCOP(=O)([O-])OCC[N+](C)(C)C [Miltefosine] (10 µM) 0
N#CC(c1ccnc(OCc2ccc(CN3CCOCC3)cc2)n1)c1nc2ccccc2s1 (stereo unspecified) [Bentamapimod] (2.5 µM) 0
Cc1cnc(-c2ccc(-c3ccc(NC(=O)Nc4cccc(C(F)(F)F)c4)cc3F)c3c2C(=O)NC3)[nH]1 (10 µM) 0

Structures above containing a CF3 group (4):
kinase-Nluc reporter destabilization hit call, inactive:
CC[C@@](C)(Nc1ccnc(-c2c[nH]c3ncccc23)n1)C(=O)NCC(F)(F)F [Decernotinib] (10 µM) 0
Cc1ccc(NC(=O)c2ccnc(C(F)(F)F)c2)cc1-c1cc(OCCO)nc(N2CCOCC2)c1 (10 µM) 0
CC(C)(O)[C@H]1CC[C@H](Nc2ccc3ncc(-c4cccc(C(F)(F)F)c4)n3n2)CC1 (10 µM) 0
Cc1cnc(-c2ccc(-c3ccc(NC(=O)Nc4cccc(C(F)(F)F)c4)cc3F)c3c2C(=O)NC3)[nH]1 (10 µM) 0
